Data: PMC2998434, “Domain Swapping in Allosteric Modulation of DNA Specificity” (PLoS Biology, 2010)
Residue numbers refer to the chain shown, from its start. Numbers in names are those of the source. No constants are given. Whether binding was seen depends on the method and setting.

Key:
[1] = biological target: P27W SgrAI (Streptomyces griseus) (UniProt Q9F6L0); assay: native gel or EMSA; 1 µM SgrAI, 1 nM 32P labeled 18-1 or 18-2 DNA, unlabeled PCP DNA 10-1,000 nM; 20 mM Tris-OAc pH 8.0, 50 mM KOAc, 10 mM Ca(OAc)2, 1 mM DTT, 10% glycerol; 4°C; DNA bound dimers (DBD) to high molecular weight species (HMWS); both purified
[2] = biological target: P27G SgrAI (Streptomyces griseus) (UniProt Q9F6L0); assay: as above

B1: P27W SgrAI (enzyme, UniProt Q9F6L0 2-339)
chain: PFTYSIEATRNLATTERCIQDIRNAWVRNRSTQFQLAQQNMLAYTFGEVIPGFASAGINGMNYRDVIGRPVENAVTEGTHFFRDDFRVDSNAKAKVAGDIFEIVSSAVMWNCAARWNSLMVGEGWRSQPRYSRPTLSPSPRRQVAVLNLPRSFDWVSLLVPESQEVIEEFRAGLRKDGLGLPTSTPDLAVVVLPEEFQNDEMWREEIAGLTRPNQILLSGAYQRLQGRVQPGEISLAVAFKRSLRSDRLYQPLYEANVMQLLLEGKLGAPKVEFEVHTLAPEGTNAFVTYEAASLYGLAEGRSAVHRAIRELYVPPTAADLARRFFAFLNERMELVNG
With B1 the binding [1] was “no binding (tested: 1 µM enzyme, PCP up to 1,000 nM)”.

B2: P27G SgrAI (enzyme, UniProt Q9F6L0 2-339)
chain: B1 chain with W26G
With B2 the binding [2] was “no binding (tested: 1 µM enzyme, PCP up to 1,000 nM)”.
